Test results from the supplement of paper PMC3334620.
Over roughly 33,000 sequences, “E-score (-0.5 to 0.5)” has its median near -0.016; the highest 2% begin near 0.3. The list shows a part of the results.

These sequences were tested against T1, Yer184c (UniProt P39961) (assay: PBM E-score (8-mer binding enrichment) (E-score (-0.5 to 0.5)); higher = stronger / more preferred TF binding). Details: protein concentration: 100 nM; construct: GST-full length.
T1 sequence: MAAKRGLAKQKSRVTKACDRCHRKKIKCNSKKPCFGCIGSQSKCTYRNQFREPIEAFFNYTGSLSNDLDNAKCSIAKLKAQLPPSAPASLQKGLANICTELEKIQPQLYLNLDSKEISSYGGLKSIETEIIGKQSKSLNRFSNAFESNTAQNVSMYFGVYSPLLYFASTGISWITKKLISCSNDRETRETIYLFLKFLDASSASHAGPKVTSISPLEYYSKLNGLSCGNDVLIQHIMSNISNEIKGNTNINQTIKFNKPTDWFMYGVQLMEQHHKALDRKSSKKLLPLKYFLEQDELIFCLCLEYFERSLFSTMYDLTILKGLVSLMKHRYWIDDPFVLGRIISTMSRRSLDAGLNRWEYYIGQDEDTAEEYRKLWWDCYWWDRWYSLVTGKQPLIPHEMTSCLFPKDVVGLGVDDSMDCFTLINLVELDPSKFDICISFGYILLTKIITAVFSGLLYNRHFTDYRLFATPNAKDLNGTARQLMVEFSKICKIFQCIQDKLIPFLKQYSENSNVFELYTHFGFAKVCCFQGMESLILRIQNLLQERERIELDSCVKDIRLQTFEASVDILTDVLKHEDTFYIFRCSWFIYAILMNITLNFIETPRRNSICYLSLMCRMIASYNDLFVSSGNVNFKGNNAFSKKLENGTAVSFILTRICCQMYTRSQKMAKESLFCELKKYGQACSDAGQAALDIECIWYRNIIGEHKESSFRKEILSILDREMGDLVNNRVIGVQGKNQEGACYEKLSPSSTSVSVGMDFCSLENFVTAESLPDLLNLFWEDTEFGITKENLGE
Outline: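 GST-tagged yeast TFs (full-length or DNA-binding domain) were made by PURExpress in vitro transcription/translation and applied at about 100-200 nM to universal all-10-mer Agilent arrays. The arrays were made double-stranded by primer extension, on fresh or once-stripped slides. Bound protein was detected with fluorescent anti-GST, and scans were normalised with masliner. Each ungapped eight-base word, pooled with its reverse complement, received an E-score (modified Wilcoxon-Mann-Whitney statistic) from the Universal PBM Analysis Suite.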

Sequence | PBM E-score
GGCACCAA | 0.138
GATGTAGA | -0.0255
ACTAATAT | 0.0845
AACGCAAC | 0.0396
ATCGGTCG | 0.103
GGTCTACA | -0.0802
GTAAATGA | 0.113
AAAGCTCG | 0.141
CGTGCAGA | -0.112
CCGTGTGA | 0.106
TCTCGGAA | 0.334
AATTAAGG | -0.0516
CATTCGAG | -0.0644
AGCCAAAG | -0.0858
CAGGGAAC | -0.0403
AAGAACCA | 0.0592
AATTCAGT | -0.198
AATACGCT | -0.107
AAATGTGC | 0.119
TGCGACCA | 0.114
GGCTCCGA | 0.0964
ACGGGTGA | -0.125
CGTCTTCA | -0.00365
GCCCACGC | -0.184
CATAATTC | 0.0148

Sequence | PBM E-score
AAATGTAC | -0.00258
ACGAGTCA | -0.0551
TAAACTAA | 0.254
CGAAGAAA | 0.268
AGTGATCC | 0.0892
GATCCACA | -0.0426
AAATTCCG | 0.384
TGCCGGAA | 0.421
GCTGTTTA | 0.141
GACGACTA | -0.263
ACACTATC | -0.00981
TCACACCA | 0.0175
CCTCTCCA | -0.273
CAGAATGC | 0.0811
AGCCGGTC | 0.144
CGTAGTGC | -0.0978
CGAGAACA | 0.0391
GATATGCC | -0.0819
CCGCACCA | -0.0433
CCGTGGTC | 0.00535
GGAAGCCA | -0.227
CCGAGCAA | 0.195
CAGATAGA | -0.0671
CCGGGAGA | 0.253
CCCCAGTA | -0.202

Sequence | PBM E-score
GTCTTAAC | -0.122
CAATTTAC | -0.0155
CCGAAACG | 0.265
CCAAGAGC | -0.141
ATAGGCTC | -0.0944
ACGCCCCA | -0.128
CTTCTTGC | 0.0529
GGGAAGCA | -0.128
CGCCAGCC | -0.0576
ACACTGGC | -0.0493
CGGCGGAC | 0.266
AATGTACG | -0.181
CCTTCTAC | -0.177
AAGACAAT | -0.0653
AGTATAGA | 0.0886
ACAGTTCC | 0.175
CGCGGCCG | 0.251
GTGCTTCA | 0.114
GCAACTGC | 0.106
CCAGAGAA | 0.00736
ACTTGGGG | -0.277
AATGCCCA | -0.178
ATCTCGGC | 0.37
GCCCATTA | -0.134
CAAAAAAC | 0.168

Some of the entries so far, tab-delimited:
Sequence	PBM E-score
ATAGGCTC	-0.0944
ACGCCCCA	-0.128

The results go on.

Sequence | PBM E-score
GACAAACC | 0.0316
ACAATAAG | 0.0199
CGTTCCAG | -0.0853
TACAGAGA | -0.0445
CGTCAACA | -0.0309
AGGTGATA | -0.122
AGCTTAGA | -0.0558
CAAGAGTG | -0.158
TACGAAGA | 0.05
AGCTTACT | -0.0973
AAGGCAGC | -0.142
ACATATTG | -0.0568
CACCCGGG | 0.189
CCAGAAAG | 0.122
CGGGAGCC | -0.11
CCTGTCCG | 0.0366
CATATGCA | -0.0944
CCTGCTTC | -0.164
GGAAGGCC | -0.124
GTGCAAAC | 0.0615
ACCCAAAG | -0.173
GTGTAGCA | -0.216
ATTCGGAG | 0.205
CCTTGTAG | -0.145
GGGCCCGA | 0.105

Exported with tabs: part of the list above.
Sequence	PBM E-score
CACCCGGG	0.189
CCAGAAAG	0.122

Additional results:

Sequence | PBM E-score
CATAATGA | -0.0194
GAAGTCAC | -0.123
ATTGTGCA | 0.0169
CTCTCAAG | -0.058
ATCGACTG | -0.0891
CTCCCCCC | -0.421
TATTTACA | -0.00419
AGCTCTTC | 0.0727
CAGCAACA | 0.223
ATCAATCG | -0.00221
AGGCACCC | -0.305
CCGGGCAC | 0.177
CGATGGTC | -0.12
AACACTCC | 0.073
AAAGCTCC | -0.0539
CTCCGACC | 0.0141
AACGGGTG | -0.0136
ACCCGCTG | -0.0362
CCCCGGCG | 0.0993
CAACTCCG | 0.197
AGCTAAGC | -0.197
ATCCGCAA | 0.0943
AACGTAGA | 0.0265
CTCTTGCC | -0.0522
TCCGACAA | 0.225

Sequence | PBM E-score
CCTGCCAC | -0.186
CTTTTCGC | 0.214
TCAAAACA | 0.191
ATGCTCTA | 0.0424
AATTTGTC | 0.11
TATAAGAA | 0.046
CGGGTGAG | 0.0538
GAATGAAA | 0.0589
CTTATAAG | 0.139
ACTAGATG | 0.0118
CGGTGTCA | -0.0203
ATGGTCTG | -0.127
CATTCGAA | 0.0417
ATTCGTTG | 0.173
GATGGGAC | -0.26
GATGTAAC | 0.0556
AAACGGGC | -0.00079
TCACTCAA | -0.153
GCTTACCC | -0.168
ATATTTCG | 0.318
AAGTATGC | -0.115
GCTTAATA | 0.00442
ATGCCGTC | 0.0209
TGCGTAAA | 0.0883
ATGTCCAA | 0.0803

Sequence | PBM E-score
TATGCTCA | 0.0666
CCTTGCAA | -0.183
GCTGTGAA | -0.0809
ACGGGAGA | -0.0674
ATTCAAAC | 0.206
ACAGGTTA | -0.219
CCCAACCA | -0.118
AGTAGTCG | -0.0453
AGGAGTAC | -0.103
CACCATTC | -0.0855
ACCAATGA | -0.153
AATTTTAT | 0.379
AGTCCGAA | 0.343
ATAGTTGG | -0.182
CCCAAGGG | -0.433
GTGACGAA | 0.026
ACCGGGAC | 0.106
AATAAGAG | 0.237
CGGGCATC | -0.0827
GATAATAA | 0.0425
CGGAAGTA | 0.303
CCCCACCG | -0.053
GATATTGC | -0.0873
GCCGAAGC | 0.246
AGGTGCCG | 0.22

Sequence | PBM E-score
CCGTAGAG | 0.00453
CAGTAAGC | -0.0883
CGCTAAAC | 0.083
ATGCCCAG | -0.0127
GTTCACCA | 0.044
AATTCATC | -0.141
AGCCCCAG | -0.226
AATGAGCA | -0.00372
CGTTCTTC | 0.0785
GCGAAGAC | -0.145
GAAAACCC | -0.0764
ATACGTCA | -0.0448
AGCGGTCG | -0.28
ATGTTCTA | -0.0707
AAACTTGC | 0.0395
ACCTCCCA | -0.347
CCTTATTA | -0.00709
AAGGCATT | -0.159
CAGGACTC | -0.114
AAAGGTGT | -0.056
ACCCACTC | -0.165
CCCCAGAG | -0.334
AATTGACT | 0.101
ACCAGCCA | -0.169
ATCGGCCA | 0.125

Sequence | PBM E-score
CACGTACC | -0.203
GACGACGC | -0.13
CGTGTCAC | 0.155
GACCAATA | -0.101
AGTGCCAT | -0.233
CCGCCCTC | -0.0585
GCACTAGC | -0.127
GGCTGCTA | -0.0683
CCGTCGGA | 0.148
CAAGTTTC | 0.088
ACCATGCT | -0.0829
CTAGCTGC | -0.261
GACTGACC | -0.267
ACCCACAA | 0.098
AGAGCAGC | -0.232
TCCATTCA | 0.0982
CAACTCGG | 0.0948
ACGGGTAC | -0.121
CTATTACC | -0.00629
AAGTAGAG | 0.00608
GGGCTGAC | -0.0867
TAAAATGA | 0.171
CCAGTGGC | -0.176
AAGGTCGG | -0.018
AATAAGTG | -0.0698

Sequence | PBM E-score
AGCTTCTA | -0.0703
CCCACTAA | -0.0657
ACACATCT | -0.0415
AGAAATGA | 0.249
TACCAGAA | 0.145
ATGACCCC | -0.164
CGTTCGAC | -0.144
ACCGACTC | -0.017
GCTTTCCC | 0.014
CTTGTACC | -0.138
CGGGTGTA | 0.0244
TACAGCGA | -0.029
AAATGGCT | -0.0786
ATTCAATG | 0.0832
AAGGTTAC | -0.0291
ACTACTAC | 0.0312
ATCGTCTC | 0.0156
TGCATGCA | 0.161
AGCTCGTA | -0.0314
CGTGGCAC | 0.0175
CAGAGTCC | 0.0568
GAATCCTC | -0.299
CCCAGCTC | -0.222
CCCTAGCC | -0.165
ACGTACAA | 0.103

Shown as tab-separated lines: entries from further up.
Sequence	PBM E-score
ATGCCCAG	-0.0127
GTTCACCA	0.044
AATTCATC	-0.141
AGCCCCAG	-0.226
AATGAGCA	-0.00372
CGTTCTTC	0.0785
GCGAAGAC	-0.145
GAAAACCC	-0.0764
ATACGTCA	-0.0448
AGCGGTCG	-0.28
ATGTTCTA	-0.0707
AAACTTGC	0.0395
ACCTCCCA	-0.347
CCTTATTA	-0.00709
AAGGCATT	-0.159
CAGGACTC	-0.114
AAAGGTGT	-0.056
ACCCACTC	-0.165
AATTGACT	0.101
ACCAGCCA	-0.169
ATCGGCCA	0.125
CACGTACC	-0.203
GACGACGC	-0.13
CGTGTCAC	0.155
GACCAATA	-0.101
AGTGCCAT	-0.233
CCGCCCTC	-0.0585
GCACTAGC	-0.127
GGCTGCTA	-0.0683
CAAGTTTC	0.088
ACCATGCT	-0.0829
CTAGCTGC	-0.261
GACTGACC	-0.267
ACCCACAA	0.098
AGAGCAGC	-0.232
TCCATTCA	0.0982
CAACTCGG	0.0948
ACGGGTAC	-0.121
CTATTACC	-0.00629
AAGTAGAG	0.00608
GGGCTGAC	-0.0867
TAAAATGA	0.171
CCAGTGGC	-0.176
AAGGTCGG	-0.018
AATAAGTG	-0.0698
AGCTTCTA	-0.0703
CCCACTAA	-0.0657
ACACATCT	-0.0415
AGAAATGA	0.249
TACCAGAA	0.145
ATGACCCC	-0.164
CGTTCGAC	-0.144
ACCGACTC	-0.017
GCTTTCCC	0.014
CTTGTACC	-0.138
CGGGTGTA	0.0244
AAATGGCT	-0.0786
ATTCAATG	0.0832
AAGGTTAC	-0.0291
ACTACTAC	0.0312
ATCGTCTC	0.0156
TGCATGCA	0.161
AGCTCGTA	-0.0314
CGTGGCAC	0.0175
CAGAGTCC	0.0568
GAATCCTC	-0.299
CCCAGCTC	-0.222
CCCTAGCC	-0.165
ACGTACAA	0.103

Next results.

Sequence | PBM E-score
CTTTAGGC | -0.122
GCCCGGCA | 0.271
CTCAACGA | -0.088
ATGACGCA | -0.116
ATGGGAGG | -0.213
CCTCGTAG | -0.11
GTACTTGA | -0.116
CGCGGCAA | 0.274
ACTACATG | 0.0213
ATTTCATA | 0.234
GTCAGGCA | -0.127
ACAAAGAG | -0.0549
CAGTCGGC | 0.057
ATCTACGG | 0.186
CGGATACG | 0.247
CCAGCCAA | -0.0674
AGCTCACT | -0.187
AGTTCGTG | 0.054
CGTTGCTA | -0.0272
CTTAACGA | 0.0703
CGTGTTGA | 0.166
AGCTATCG | -0.0905
AGACATAG | 0.0496
TCAATGAA | -0.00441
AGCGGCTA | 0.0888

Sequence | PBM E-score
ATTGCGCC | 0.0297
AGGTTAGC | -0.298
AGAACACA | -0.118
CGAACATA | 0.0782
CTATGTGA | -0.116
CAGTCAAG | -0.0942
GGATCCCA | -0.0926
TAGACCAA | 0.08
GCACCTAC | -0.139
CAGTGATG | -0.196
AAAAAATC | 0.208
GGGGGGAC | -0.445
CCGCTGAG | 0.111
ACTTGGAC | 0.0938
ACCTTCTC | -0.0408
ACCTGCCG | 0.0235
